Results from the supplement of paper PMC7661543.
Differences between knockout arms are mostly noise.

Tested on: HCC-38
Assay: relative cell number vs DMSO control (72 h) (% of DMSO); higher = less growth inhibition (more cells)
Experimental: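 QMAP-Seq: a pool of 5 breast cancer cell lines (ZR-75-1, SKBR3, HCC-38, MDA-MB-231, BT-20), each carrying 12 doxycycline-inducible Cas9 sgRNA perturbations (11 knockouts plus non-targeting sgNT), was treated with compounds for 72 h at four 10-fold doses (10 nM-10 uM or 1 nM-1 uM range). Barcodes were amplified and sequenced, and cell number was interpolated from 293T spike-in standard curves. The result is expressed as % of the median of DMSO wells. Two biological replicates.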

Cc1ccc(C(=O)N(CCCN)[C@@H](c2oc3cc(Cl)ccc3c(=O)c2Cc2ccccc2)C(C)C)cc1
Conditions	relative cell number
sgRNA knockout: sgATF3, 10 nM	23.9
sgRNA knockout: sgATF3, 100 nM	26.5
sgRNA knockout: sgATF3, 1000 nM	31.1
sgRNA knockout: sgATF3, 10000 nM	5.74
sgRNA knockout: sgATF4, 10 nM	22.6
sgRNA knockout: sgATF4, 100 nM	24.2
sgRNA knockout: sgATF4, 1000 nM	24.51
sgRNA knockout: sgATF4, 10000 nM	6.15
sgRNA knockout: sgATF6, 10 nM	27.2
sgRNA knockout: sgATF6, 100 nM	29.8
sgRNA knockout: sgATF6, 1000 nM	37.1
sgRNA knockout: sgATF6, 10000 nM	5.55
sgRNA knockout: sgATG7, 10 nM	27.3
sgRNA knockout: sgATG7, 100 nM	29.2
sgRNA knockout: sgATG7, 1000 nM	28.7
sgRNA knockout: sgATG7, 10000 nM	6.27
sgRNA knockout: sgERN1, 10 nM	27.4
sgRNA knockout: sgERN1, 100 nM	25
sgRNA knockout: sgERN1, 1000 nM	26.1
sgRNA knockout: sgERN1, 10000 nM	6.32
sgRNA knockout: sgHSF1, 10 nM	25.3
sgRNA knockout: sgHSF1, 100 nM	21.4
sgRNA knockout: sgHSF1, 1000 nM	33.8
sgRNA knockout: sgHSF1, 10000 nM	3.71
sgRNA knockout: sgHSF2, 10 nM	27.3
sgRNA knockout: sgHSF2, 100 nM	29.5
sgRNA knockout: sgHSF2, 1000 nM	32.2
sgRNA knockout: sgHSF2, 10000 nM	4.62
sgRNA knockout: sgKEAP1, 10 nM	34.8
sgRNA knockout: sgKEAP1, 100 nM	26.7
sgRNA knockout: sgKEAP1, 1000 nM	40.382
sgRNA knockout: sgKEAP1, 10000 nM	5.7
sgRNA knockout: sgNFE2L2, 10 nM	23.1
sgRNA knockout: sgNFE2L2, 100 nM	24.5
sgRNA knockout: sgNFE2L2, 1000 nM	24.5
sgRNA knockout: sgNFE2L2, 10000 nM	4.63
sgRNA knockout: sgSLC35F2, 10 nM	24.3
sgRNA knockout: sgSLC35F2, 100 nM	25.8
sgRNA knockout: sgSLC35F2, 1000 nM	30.5
sgRNA knockout: sgSLC35F2, 10000 nM	4.51
sgRNA knockout: sgXBP1, 10 nM	25.9
sgRNA knockout: sgXBP1, 100 nM	24.9
sgRNA knockout: sgXBP1, 1000 nM	28.3
sgRNA knockout: sgXBP1, 10000 nM	5.95

Cc1ccc(S(=O)(=O)OCC(=O)Nc2ccc(C(=O)O)c(O)c2)cc1
Conditions	relative cell number
sgRNA knockout: sgATF3, 10 nM	114
sgRNA knockout: sgATF3, 100 nM	97.1
sgRNA knockout: sgATF3, 1000 nM	93.8
sgRNA knockout: sgATF3, 10000 nM	87.5
sgRNA knockout: sgATF4, 10 nM	110
sgRNA knockout: sgATF4, 100 nM	102
sgRNA knockout: sgATF4, 1000 nM	87.1
sgRNA knockout: sgATF4, 10000 nM	85.1
sgRNA knockout: sgATF6, 10 nM	117
sgRNA knockout: sgATF6, 100 nM	107
sgRNA knockout: sgATF6, 1000 nM	86.8
sgRNA knockout: sgATF6, 10000 nM	84.1
sgRNA knockout: sgATG7, 10 nM	114.3
sgRNA knockout: sgATG7, 100 nM	89.8
sgRNA knockout: sgATG7, 1000 nM	87.2
sgRNA knockout: sgATG7, 10000 nM	86.4
sgRNA knockout: sgERN1, 10 nM	109
sgRNA knockout: sgERN1, 100 nM	100
sgRNA knockout: sgERN1, 1000 nM	91.1
sgRNA knockout: sgERN1, 10000 nM	86.3
sgRNA knockout: sgHSF1, 10 nM	119
sgRNA knockout: sgHSF1, 100 nM	102
sgRNA knockout: sgHSF1, 1000 nM	103
sgRNA knockout: sgHSF1, 10000 nM	93.9
sgRNA knockout: sgHSF2, 10 nM	122
sgRNA knockout: sgHSF2, 100 nM	102.7
sgRNA knockout: sgHSF2, 1000 nM	101
sgRNA knockout: sgHSF2, 10000 nM	95.4
sgRNA knockout: sgKEAP1, 10 nM	126
sgRNA knockout: sgKEAP1, 100 nM	112
sgRNA knockout: sgKEAP1, 1000 nM	110.2
sgRNA knockout: sgKEAP1, 10000 nM	106
sgRNA knockout: sgNFE2L2, 10 nM	107.7
sgRNA knockout: sgNFE2L2, 100 nM	93
sgRNA knockout: sgNFE2L2, 1000 nM	89.9
sgRNA knockout: sgNFE2L2, 10000 nM	88.5
sgRNA knockout: sgSLC35F2, 10 nM	109
sgRNA knockout: sgSLC35F2, 100 nM	106
sgRNA knockout: sgSLC35F2, 1000 nM	88.1
sgRNA knockout: sgSLC35F2, 10000 nM	90.2
sgRNA knockout: sgXBP1, 10 nM	116.5
sgRNA knockout: sgXBP1, 100 nM	99.8
sgRNA knockout: sgXBP1, 1000 nM	88.5
sgRNA knockout: sgXBP1, 10000 nM	94.7

Cc1nc(Nc2n[nH]c3c2CN(C(=O)N[C@H](CN(C)C)c2ccccc2)C3(C)C)c2sccc2n1
Conditions	relative cell number
sgRNA knockout: sgATF3, 10 nM	62.5
sgRNA knockout: sgATF3, 100 nM	51.4
sgRNA knockout: sgATF3, 1000 nM	28.5
sgRNA knockout: sgATF3, 10000 nM	13.5
sgRNA knockout: sgATF4, 10 nM	64.2
sgRNA knockout: sgATF4, 100 nM	53.1
sgRNA knockout: sgATF4, 1000 nM	28.9
sgRNA knockout: sgATF4, 10000 nM	14.3
sgRNA knockout: sgATF6, 10 nM	68.8
sgRNA knockout: sgATF6, 100 nM	56.4
sgRNA knockout: sgATF6, 1000 nM	30
sgRNA knockout: sgATF6, 10000 nM	14.4
sgRNA knockout: sgATG7, 10 nM	71.9
sgRNA knockout: sgATG7, 100 nM	54.6
sgRNA knockout: sgATG7, 1000 nM	28.6
sgRNA knockout: sgATG7, 10000 nM	15.4
sgRNA knockout: sgERN1, 10 nM	68.3
sgRNA knockout: sgERN1, 100 nM	54.2
sgRNA knockout: sgERN1, 1000 nM	28.9
sgRNA knockout: sgERN1, 10000 nM	14.1
sgRNA knockout: sgHSF1, 10 nM	71.9
sgRNA knockout: sgHSF1, 100 nM	46.6
sgRNA knockout: sgHSF1, 1000 nM	25.6
sgRNA knockout: sgHSF1, 10000 nM	17.7
sgRNA knockout: sgHSF2, 10 nM	68.1
sgRNA knockout: sgHSF2, 100 nM	56.7
sgRNA knockout: sgHSF2, 1000 nM	30.4
sgRNA knockout: sgHSF2, 10000 nM	12.1
sgRNA knockout: sgKEAP1, 10 nM	75.3
sgRNA knockout: sgKEAP1, 100 nM	49.1
sgRNA knockout: sgKEAP1, 1000 nM	28.2
sgRNA knockout: sgKEAP1, 10000 nM	11.9
sgRNA knockout: sgNFE2L2, 10 nM	63.5
sgRNA knockout: sgNFE2L2, 100 nM	51.9
sgRNA knockout: sgNFE2L2, 1000 nM	33.8
sgRNA knockout: sgNFE2L2, 10000 nM	11.9
sgRNA knockout: sgSLC35F2, 10 nM	57.3
sgRNA knockout: sgSLC35F2, 100 nM	49.4
sgRNA knockout: sgSLC35F2, 1000 nM	26.9
sgRNA knockout: sgSLC35F2, 10000 nM	16.1
sgRNA knockout: sgXBP1, 10 nM	69.7
sgRNA knockout: sgXBP1, 100 nM	52.4
sgRNA knockout: sgXBP1, 1000 nM	28.39
sgRNA knockout: sgXBP1, 10000 nM	13.9
